No constants are given. Whether binding was seen depends on the method and setting. Some entries that bind do so weakly or less than the wild type.
How the values were obtained:
[1] = molecular target: CD277 (BT3 / BTN3A, butyrophilin 3), human, on cells (human) (UniProt O00481); test: immunohistochemistry on frozen sections of reactive lymph nodes
[2] = molecular target: CD277 (BT3 / BTN3A, butyrophilin 3), human, on cells (human) (UniProt O00481); test: flow cytometry on primary AML blasts
[3] = molecular target: CD277 (BT3 / BTN3A, butyrophilin 3), human, on cells (human) (UniProt O00481); test: flow cytometry on human monocytes and iDC
[4] = molecular target: CD277 (BT3 / BTN3A, butyrophilin 3), human, on cells (human) (UniProt O00481); test: flow cytometry on human PBMC, Alexa647 anti-CD277 clone 20.1
[5] = molecular target: BTN3A2 (BT3.2), human (human) (UniProt P78410); test: western blot of total protein extracts with anti-BTN3A 20.1
[6] = molecular target: CD277 (BT3 / BTN3A, butyrophilin 3), human, on cells (human) (UniProt O00481); test: flow cytometry on human NK cells

Amino acid sequences for entries named in this document (tags omitted). Residues count along the entry.
UniProt O00481, residues 30-513: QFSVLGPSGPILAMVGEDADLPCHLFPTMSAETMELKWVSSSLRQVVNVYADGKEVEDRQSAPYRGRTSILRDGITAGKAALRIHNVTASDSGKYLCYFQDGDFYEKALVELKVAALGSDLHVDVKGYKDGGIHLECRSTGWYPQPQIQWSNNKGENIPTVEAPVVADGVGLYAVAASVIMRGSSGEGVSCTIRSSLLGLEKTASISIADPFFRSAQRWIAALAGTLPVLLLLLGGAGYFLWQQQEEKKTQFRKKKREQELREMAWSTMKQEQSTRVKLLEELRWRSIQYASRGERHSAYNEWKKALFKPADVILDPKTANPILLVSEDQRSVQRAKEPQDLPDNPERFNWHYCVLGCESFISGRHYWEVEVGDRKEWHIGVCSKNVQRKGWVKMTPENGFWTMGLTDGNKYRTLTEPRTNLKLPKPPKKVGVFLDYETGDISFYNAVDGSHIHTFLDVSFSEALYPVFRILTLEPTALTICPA
UniProt P78410, residues 30-334: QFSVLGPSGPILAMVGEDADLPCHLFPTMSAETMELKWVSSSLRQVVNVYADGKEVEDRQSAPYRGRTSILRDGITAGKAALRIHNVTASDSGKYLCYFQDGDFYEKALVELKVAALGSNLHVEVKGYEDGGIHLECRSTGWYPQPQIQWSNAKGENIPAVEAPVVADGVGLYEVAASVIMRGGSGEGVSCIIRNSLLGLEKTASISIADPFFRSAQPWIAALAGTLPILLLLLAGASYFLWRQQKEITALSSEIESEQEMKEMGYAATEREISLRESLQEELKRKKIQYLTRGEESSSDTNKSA

binding [1]: binds
binding [2]: binds
binding [3]: binds
binding [4]: binds
binding [5]: binds
binding [6]: binds
B1: mAb 20.1 (murine anti-CD277 antibody, hybridoma CNCM I-4402) (antibody, V domains shown)
VH: QVQLQQSGAELVKPGASVKLSCKASGYTFTRYYLYWVKQRPGQGLEWIGEINPNNGGTKFNEKFKSKATLTVDKSSRTTYIQLSSLTSEDSAVYYCSREDDYDGTPDAMDYWGQGTAVTVSS
VL: DIQMNQSPSSLSASLGDTITITCHASQNINLWLSWYQQRPGNIPKLLIYRASNLHTGVPSRFSGSGSATGFTLTISSLQPEDIATYYCQQGHSYPYTFGGGTKLDIK

Reference: US20230285527A1
